Only a part is listed here, and it is no random draw. Inconclusive results are not listed. Calls of active or inactive are those of the source. The call rests on the fitted dose curve; in most records, active means well fitted inhibition curve with a large enough effect; inconclusive means small, poorly fitted or top-dose-only effect, or another doubt; inactive means no such curve, though single readings can be large or run the other way.
target: DNA polymerase eta (Homo sapiens) (UniProt Q9Y253); experiment: qHTS for Inhibitors of Polymerase Eta; conditions: recombinant Pol eta, fluorescent DNA replication assay
Description: The Y-family of DNA polymerases, such as Pol eta, are specifically involved in DNA repair. Pol eta copies undamaged DNA with a lower fidelity than other DNA-directed polymerases. However, it accurately replicates UV-damaged DNA; when thymine dimers are present, this polymerase inserts the complementary nucleotides in the newly synthesized DNA, thereby bypassing the lesion and suppressing the mutagenic effect of UV-induced DNA damage. […] Thus, while pol eta's (and most likely iota's) normal function is to protect humans against the deleterious consequences of DNA damage, under certain conditions they can have deleterious effects on human health. As a consequence, we propose to utilize a high throughput replication assay to identify small molecule inhibitors of pol eta. […]
Three microliters of reagents (buffer in column 3 and 4 as negative control and 10 nM Pol eta in columns 1, 2, and 5-48) were dispensed into a 1,536-well black solid-bottomed plate. […] The plates were then incubated for 15 min at room temperature, and 1 µL substrate (50 nM final concentration) was added to start the reaction and kinetically read twice at 0 min and 10 min on the Viewlux reader
Potency means the concentration at half of the fitted maximal effect.

By UniProt entry, the sequences of proteins in these tests, tags left out. Where a name states a change or a piece, a line headed by the entry shows the natural chain unless it says otherwise.
UniProt Q9Y253: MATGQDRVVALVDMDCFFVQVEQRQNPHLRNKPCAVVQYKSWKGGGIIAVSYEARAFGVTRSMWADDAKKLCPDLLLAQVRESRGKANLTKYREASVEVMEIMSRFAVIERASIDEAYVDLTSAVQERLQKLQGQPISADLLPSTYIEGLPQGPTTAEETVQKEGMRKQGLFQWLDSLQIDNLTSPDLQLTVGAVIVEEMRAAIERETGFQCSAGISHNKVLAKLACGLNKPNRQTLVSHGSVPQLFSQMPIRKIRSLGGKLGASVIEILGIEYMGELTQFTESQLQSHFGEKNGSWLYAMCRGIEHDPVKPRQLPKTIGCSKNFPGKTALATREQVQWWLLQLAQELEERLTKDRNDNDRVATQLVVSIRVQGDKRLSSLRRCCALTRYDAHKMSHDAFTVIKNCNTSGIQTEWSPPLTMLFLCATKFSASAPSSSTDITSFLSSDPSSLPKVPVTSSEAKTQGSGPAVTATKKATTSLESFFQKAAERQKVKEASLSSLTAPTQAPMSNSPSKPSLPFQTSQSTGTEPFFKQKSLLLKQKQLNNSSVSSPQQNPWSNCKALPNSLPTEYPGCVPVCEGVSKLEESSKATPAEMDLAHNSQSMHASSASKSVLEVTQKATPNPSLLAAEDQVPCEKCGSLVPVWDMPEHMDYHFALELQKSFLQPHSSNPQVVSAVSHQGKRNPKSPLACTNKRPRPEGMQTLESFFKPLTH

Row | Compound | Potency
1 | CS(=O)(=O)Nc1cccc2[nH]ncc12 | active: 89.1 µM

Reference: PubChem BioAssay AID588591 (National Center for Advancing Translational Sciences (NCATS), 2011)
